Reference: patent US8202696B2, “Means for use in treating diseases correlated with or caused by non-physiological levels of microtubule-associated PP2Ac” (Max-Planck-Gessellschaft zur Forderung der Wissenschaften …, priority 2002, dated 2012)
For at least one compound, name, drawing or mass did not settle the structure.

Tested on: Gli3
Assay: Localization of overexpressed GFP-tagged Gli3 in HeLa cells
Type: cell-based
Details: GFP-tagged Gli3-overexpressing HeLa cells
Method: 1×10^5 HELA cells per well of a 6-well plate were transfected with Qiagen Polyfect transfection reagent according to the manufacturer's instructions. The ratio of the amount of DNA to the amount of polyfect transfection reagent was 3 μg DNA/10 μl Polyfect. Constructs used for expression in HELA were the following: GFP-GLI3 (aa 18-1549), GLI3-GFP (aa 1-1522), MYC-GLI3 (aa 18-1596), FLAG-GLI3 (aa18-1596), MYC-B-BOX1 (aa 110-167 of the MID1 protein), ALPHA4-V5 (aa 1-339). 24 h after transfection immunofluorescence was performed. GFP-constructs were treated as described in Schweiger et al., 1999. Immunofluorescence with MYC-tagged and FLAG-tagged constructs was done according to Trockenbacher et al., 2001. FLAG-tagged constructs were detected with anti-FLAG-antibody diluted 1:500, the secondary antibody FITC-antimouse was diluted 1:1000. For MYC-tagged constructs anti-MYC-antibody 1:300 and CY3-antirabbit 1:1000 were used. […]
Overexpressed Gli3 is predominantly localized in the nucleus (FIG. 10, top left).

`CO[C@H]1C[C@@H]2CC[C@@H](C)[C@@](O)(O2)C(=O)C(=O)N2CCCC[C@H]2C(=O)O[C@H]([C@H](C)C[C@@H]2CC[C@@H](O)[C@H](OC)C2)CC(=O)[C@H](C)/C=C(\C)[C@@H](O)[C@@H](OC)C(=O)[C@H](C)C[C@H](C)/C=C/C=C/C=C/1C` [rapamycin, reference compound] was tested, and the Gli3 localization was “significant retention of the active form of Gli3 in the cytosol”.
